Reference: US20240117021A1
These are yes or no findings as the source states them, for the method shown. Some entries that bind do so weakly or less than the wild type.

Experiments:
[1] = target: T1, complement component C1s (Homo sapiens) (UniProt P09871); assay: Biacore SPR, C1s immobilized directly on the sensor chip; forced isomerization samples of SAR445088 (LC D32)
T1 sequence: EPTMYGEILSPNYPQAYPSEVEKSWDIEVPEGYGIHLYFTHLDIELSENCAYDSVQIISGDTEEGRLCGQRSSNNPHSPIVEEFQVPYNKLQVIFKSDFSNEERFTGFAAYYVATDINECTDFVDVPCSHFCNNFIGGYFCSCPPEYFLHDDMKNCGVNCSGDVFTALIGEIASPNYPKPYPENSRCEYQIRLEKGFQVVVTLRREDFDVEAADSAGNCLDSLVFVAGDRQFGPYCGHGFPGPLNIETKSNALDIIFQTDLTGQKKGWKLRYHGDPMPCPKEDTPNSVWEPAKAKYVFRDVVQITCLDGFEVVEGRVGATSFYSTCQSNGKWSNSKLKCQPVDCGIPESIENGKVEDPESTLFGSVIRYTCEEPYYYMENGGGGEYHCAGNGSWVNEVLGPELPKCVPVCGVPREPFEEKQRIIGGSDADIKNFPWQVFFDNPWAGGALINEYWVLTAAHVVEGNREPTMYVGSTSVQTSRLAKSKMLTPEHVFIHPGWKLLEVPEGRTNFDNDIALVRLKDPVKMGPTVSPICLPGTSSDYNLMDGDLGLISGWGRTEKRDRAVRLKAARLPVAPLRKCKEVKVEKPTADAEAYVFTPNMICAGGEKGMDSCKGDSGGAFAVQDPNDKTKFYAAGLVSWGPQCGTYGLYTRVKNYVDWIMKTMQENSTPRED

[2] = target: T1, complement component C1s (Homo sapiens); assay: Biacore SPR potency assay, C1s immobilized on the chip, samples diluted 1000-fold; Batch 4 chelator study
[3] = target: T1, complement component C1s (Homo sapiens); assay: Biacore SPR potency, C1s immobilized; Batch 3 formulation study
[4] = target: T1, complement component C1s (Homo sapiens); assay: Biacore SPR potency, C1s immobilized; Batch 2 chelator study
[5] = target: T1, complement component C1s (Homo sapiens); assay: Biacore SPR potency, C1s immobilized; Batch 3 chelator study
[6] = target: T1, complement component C1s (Homo sapiens); assay: Biacore SPR potency, C1s immobilized; Batch 4 chelator study
[7] = target: T1, complement component C1s (Homo sapiens); assay: Biacore SPR potency, C1s immobilized; Batch 1 formulation study
[8] = target: T1, complement component C1s (Homo sapiens); assay: Biacore SPR potency assay, C1s immobilized on the sensor chip, stored antibody samples diluted 1000-fold; read as % activity remaining
[9] = target: T1, complement component C1s (Homo sapiens); assay: Biacore SPR potency assay, C1s immobilized on the chip, samples diluted 1000-fold; Batch 1 chelator study
[10] = target: T1, complement component C1s (Homo sapiens); assay: Biacore SPR, C1s immobilised on the chip, stored antibody formulation diluted 1000-fold, activity relative to a calibration curve of the original sample
[11] = target: T1, complement component C1s (Homo sapiens); assay: Biacore SPR, C1s immobilized on the chip, stored samples of formulated antibody (histidine buffer pH 6.4, 6.8, 7.1; V = vial, P = PFS), activity relative to the unstressed sample
[12] = target: T1, complement component C1s (Homo sapiens); assay: Biacore SPR potency, C1s immobilized; Batch 1 chelator study
[13] = target: T1, complement component C1s (Homo sapiens); assay: Biacore SPR potency, C1s immobilized; Batch 4 formulation study
[14] = target: T1, complement component C1s (Homo sapiens); assay: Biacore SPR potency, C1s immobilized; Batch 2 formulation study
[15] = target: T1, complement component C1s (Homo sapiens); assay: Biacore SPR potency assay, C1s immobilized on the chip, samples diluted 1000-fold; Batch 3 chelator study
[16] = target: T1, complement component C1s (Homo sapiens); assay: Biacore SPR, C1s immobilized on the chip; forced isomerization study
[17] = target: T1, complement component C1s (Homo sapiens); assay: Biacore SPR potency assay, C1s immobilized on the chip, samples diluted 1000-fold; Batch 2 chelator study
[18] = target: T1, complement component C1s (Homo sapiens); assay: Biacore SPR, C1s immobilized on the chip, stored samples of formulated antibody (histidine buffer pH 6.8; V = vial, P = PFS), activity relative to the unstressed sample

Measured: binding

B1: SAR445088 (antibody, human IgG4 S228P, kappa, V domains shown)
VH: QVQLVQSGAEVKKPGASVKLSCTASGFNIKDDYIHWVKQAPGQGLEWIGRIDPADGHTKYAPKFQVKVTITADTSTSTAYLELSSLRSEDTAVYYCARYGYGREVFDYWGQGTTVTVSS
VL: DIVLTQSPDSLAVSLGERATISCKASQSVDYDGDSYMNWYQQKPGQPPKILIYDASNLESGIPARFSGSGSGTDFTLTISSLEPEDFAIYYCQQSNEDPWTFGGGTKVEIKR
binds: all assays above
